Test results from PubChem BioAssay AID330 (DTP/NCI, 2004).
The list does not hold the whole screen: its compounds were picked by chemical class. Other doses and runs of a compound may be missing. T/C is the treated group as % of the vehicle group. Some entries give survivors of the animals treated and no T/C: the source files T/C as zero there, which appears to mark a toxic dose or a test without result, not a measured value. Some doses without a T/C left all or most animals alive at the check, yet need not have been tolerated: the source hardly ever lists a survival T/C far under the control, and the zero likely stands for such cases as well. Counts of survivors are from the toxicity check (mostly the fifth day) where no day follows; animals may have died later. Schedule codes are those of the source, taken here to give the interval after Q, in days (D) or hours (H), and the number of doses after X. For survival time, the PubChem record calls one and a half times the control and up active, and a quarter to a half above the control has no call in these data; cut-offs in other NCI protocols can differ. Some entries show no survivor count and are marked so; the dose need not have been tolerated.

Test system: P388 leukemia ip, CD2F1 mice, survival T/C
Test: NCI In Vivo Anticancer Drug Screen. Data for tumor model P388 Leukemia (intraperitoneal) in CD2F1 (CDF1) mice
Settings: T/C endpoint: median survival time, higher T/C = longer survival

Compound: CC1=NP(=O)(c2ccccc2)N=C(C)N1
- T/C (dose: 50.0 mg/kg/injection, schedule: Q01DX005 (ip), vehicle: Klucel (hydroxypropylcellulose) (HPC)): 97 % of control
- T/C (dose: 100.0 mg/kg/injection, schedule: Q01DX005 (ip), vehicle: Klucel (hydroxypropylcellulose) (HPC)): 97 % of control
- T/C (dose: 200.0 mg/kg/injection, schedule: Q01DX005 (ip), vehicle: Klucel (hydroxypropylcellulose) (HPC)): 92 % of control

Compound: CCOP(=O)(O)CC.[Eu]
- T/C (dose: 100.0 mg/kg/injection, schedule: Q04DX002 (ip), vehicle: saline with Tween-80): 92 % of control [survivor count not shown]
- T/C (dose: 200.0 mg/kg/injection, schedule: Q04DX002 (ip), vehicle: saline with Tween-80): 94 % of control [survivor count not shown]

Compound: ClCCN(CCCl)B1SCCCS1
- T/C (dose: 33.0 mg/kg/injection, schedule: Q04DX003 (ip), vehicle: saline with Tween-80): 186 % of control
- T/C (dose: 50.0 mg/kg/injection, schedule: Q04DX003 (ip), vehicle: saline with Tween-80, evaluated on day 20): 150 % of control
- T/C (dose: 50.0 mg/kg/injection, schedule: Q04DX003 (ip), vehicle: saline with Tween-80, evaluated on day 30): 195 % of control

Compound: O[C@H](CNCCCl)[C@H](O)CNCCCl
- T/C (dose: 0.63 mg/kg/injection, schedule: Q04DX003 (ip), vehicle: saline): 107 % of control
- T/C (dose: 1.25 mg/kg/injection, schedule: Q01DX009 (ip), vehicle: saline): 119 % of control
- T/C (dose: 1.25 mg/kg/injection, schedule: Q04DX003 (ip), vehicle: saline): 100 % of control
- T/C (dose: 2.5 mg/kg/injection, schedule: Q01DX009 (ip), vehicle: saline): 142 % of control
- T/C (dose: 2.5 mg/kg/injection, schedule: Q04DX003 (ip), vehicle: saline): 115 % of control
- T/C (dose: 5.0 mg/kg/injection, schedule: Q01DX009 (ip), vehicle: saline): 190 % of control
- T/C (dose: 5.0 mg/kg/injection, schedule: Q04DX003 (ip), vehicle: saline): 126 % of control
- T/C (dose: 12.5 mg/kg/injection, schedule: Q04DX003 (ip), vehicle: saline with Tween-80): 154 % of control
- T/C (dose: 25.0 mg/kg/injection, schedule: Q04DX003 (ip), vehicle: saline with Tween-80): 204 % of control
- T/C (dose: 33.0 mg/kg/injection, schedule: Q04DX003 (ip), vehicle: saline): 218 % of control
- T/C (dose: 50.0 mg/kg/injection, schedule: Q04DX003 (ip), vehicle: saline with Tween-80): 240 % of control
- T/C (dose: 50.0 mg/kg/injection, schedule: Q04DX003 (ip), vehicle: saline): 181 % of control
- survivor count (dose: 75.0 mg/kg/injection, schedule: Q04DX003 (ip), vehicle: saline): 5 of 6
- survivor count (dose: 100.0 mg/kg/injection, schedule: Q04DX003 (ip), vehicle: saline): 6 of 6
- survivor count (dose: 200.0 mg/kg/injection, schedule: Q04DX003 (ip), vehicle: saline): 6 of 6
- survivor count (dose: 400.0 mg/kg/injection, schedule: Q04DX003 (ip), vehicle: saline): 0 of 6
